# Measurements from PubChem BioAssay AID504467 (National Center for Advancing Translational Sciences (NCATS), 2011).
# Among all 330,000 compounds or so, about 7,700 (2.3%) were called active. Inconclusive means that the source gave no clear call. Such entries were picked first, then a sample of the others. Calls come from the whole dose curve; as a rule, active = well fitted inhibition curve with a large enough effect; inconclusive = small, poorly fitted or top-dose-only effect, or effect the other way; inactive = flat fitted curve, though single readings scatter. Potencies of inconclusive entries are doubtful fits and often do not repeat.
# Assay: qHTS screen for small molecules that inhibit ELG1-dependent DNA repair in human embryonic kidney (HEK293T) cells expressing luciferase-tagged ELG1; note: nearly all actives have a fitted effect of over 55% in size
# Settings: HEK293T ELG1-luciferase reporter, luminescence, 16 h, DNA damage induced by 5-fluorouridine; series mostly up to 46.1 µM
# Method in brief: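 5-Fluorouridine DNA damage + compound/DMSO, 2,000 cells/well, 16 h, 37 °C/5% CO2. ONE-Glo, 30 min RT, luminescence. Readout = decrease in reporter signal.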
# Potency is the fitted concentration of half-maximal effect.
row,SMILES,Potency
1,O=C(Nc1nnc(-c2ccccn2)o1)c1cccc(Br)c1,inactive
2,Nn1c(SCC(=O)Nc2ccc(N3CCOCC3)cc2)nnc1-c1cccc(F)c1,"inconclusive: 16.4 µM [activator, partial curve, poor fit]"
3,O=C(COc1ccc(Cl)cc1)N(Cc1ccccc1)c1ccccn1,inactive
4,CC(=O)Nc1scc(-c2ccccc2)[n+]1-c1ccc(C)cc1,inactive
5,COc1cc(/C=N/OCC(=O)NC2CCCCC2C)ccc1OCc1ccc(Cl)cc1 (stereo not drawn),"inconclusive: 5.17 µM [activator, partial curve]"
6,CC(C)(CNC(=O)C1CCN(S(=O)(=O)c2cc([N+](=O)[O-])ccc2Cl)CC1)N1CCOCC1,"inconclusive: 7.3 µM [activator, single point]"
7,Cc1ccc(-c2csc(N3CCN(c4cc5c(cc4Cl)nc(-c4ccncc4)n5CCN4CCCCC4)CC3)n2)cc1,inactive
8,CCOC(=O)c1[nH]nc(C(=O)c2ccc(Br)cc2)c1O,"inconclusive: 18.4 µM [activator, single point]"
9,CC(=O)c1c(C)[nH]c(C(=O)OCc2cc(-c3ccco3)on2)c1C,"inconclusive: 5.17 µM [inhibitor, partial curve]"
10,COc1ccc(C)cc1NC(=O)CN1CCCN(S(=O)(=O)c2ccc(Br)cc2)CC1,inactive
11,CCOc1ccc2[nH]c(C(=O)N/N=C/c3ccc(OC)cc3)cc2c1,"inconclusive: 0.92 µM [inhibitor, full curve, poor fit]"
12,COc1ccc(CCNC(=O)C2CC(c3ccccc3[N+](=O)[O-])=NO2)cc1 (stereo not drawn),"inconclusive: 16.4 µM [activator, partial curve]"
13,CCNc1ccc2noc3c2c1C(=O)c1ccccc1-3,inactive
14,CCCOc1ccc(Cn2c(=O)oc3ccc(C)cc32)cc1,inactive
15,Cc1noc(NS(=O)(=O)c2ccc(NC(=O)CSc3nc4c(cc3C#N)CCC4)cc2)c1C,inactive
16,COc1cc(C(=O)OCC2CC(c3ccccc3)=NO2)cc(OC)c1OC (stereo not drawn),inactive
17,O=C(Nc1ccc2c(c1)OCO2)c1ccc(=O)[nH]n1,"inconclusive: 18.3 µM [activator, partial curve]"
18,CCOC(=O)c1sc(NC(=O)C2C3C=CC(C3)C2C(=O)O)nc1C (stereo not drawn),inactive
19,O=C(Nc1ccc(Br)cc1)c1ccc(CSC2=NCCS2)cc1,"inconclusive: 5.8 µM [activator, single point]"
20,Cc1ccc2c(CN3CCN(Cc4ccc5c(c4)OCO5)CC3)cc(=O)oc2c1C,"inconclusive: 29.1 µM [inhibitor, single point]"
21,O=C(c1ccccc1F)N1CCN(c2ccc([N+](=O)[O-])cc2-n2cccc2)CC1,"inconclusive: 25.9 µM [inhibitor, single point]"
22,CC(C)[C@H](NC(=O)N1CCn2c1nc1ccccc12)C(=O)NCC1CCCO1 (stereo partly drawn),inactive
23,COc1ccc(-c2cc(C(=O)Nc3ccc(S(=O)(=O)Nc4ncccn4)cc3)c3ccccc3n2)cc1,"inconclusive: 29.1 µM [activator, single point]"
24,Cc1cc(C(=O)N/N=C/c2cccc([N+](=O)[O-])c2O)n[nH]1,inactive
25,CCCCNC(=S)N1CCN(C(c2ccccc2)c2ccccc2)CC1,active: 20.6 µM

row,SMILES,Potency
1,COc1ccc(S(=O)(=O)N2CCOCC2)cc1NC(=O)c1sccc1C,inactive
2,CCOC(=O)Cn1nnnc1CN(Cc1cccs1)Cc1cc2cc(C)ccc2[nH]c1=O,"inconclusive: 25.9 µM [inhibitor, single point]"
3,CCOC(=O)C1CCN(C(c2cc3ccc(C)c(C)c3[nH]c2=O)c2nnnn2C2CCCCC2)CC1 (stereo not drawn),"inconclusive: 16.4 µM [inhibitor, single point]"
4,CC(=O)c1c(N2CCN(CCO)CC2)nc(=S)n(-c2ccccc2)c1C,inactive
5,COc1cccc(CNC(=O)CCc2nc3cc(S(=O)(=O)N4CCOCC4)ccc3n2C)c1,"inconclusive: 25.9 µM [activator, single point]"
6,Cn1c(SCC#N)nnc1-c1ccc2c(c1)OCO2,inactive
7,Cc1cnc(C(=O)Nc2nccs2)cn1,"inconclusive: 23.1 µM [activator, partial curve]"
8,Cc1c(/C=N\NC(=O)C2(C)CC2(Cl)Cl)cnn1C (stereo not drawn),inactive
9,Cc1cccc(C(=O)c2cnc3ccccc3c2-c2ccccc2)c1,"inconclusive: 29.1 µM [inhibitor, single point]"
10,Cc1cccc(C(=O)Nc2ccc(C)c(OC(=O)c3cccc(C)c3)c2)c1,"inconclusive: 25.9 µM [activator, single point]"
11,CCO[C@@H]1OC(C(=O)N2CCN(Cc3ccc4c(c3)OCO4)CC2)=C[C@H](c2ccc(Br)cc2)[C@H]1CCCO,"inconclusive: 16.4 µM [inhibitor, single point]"
12,CCOc1ccccc1N1CN(CC)CNC1=S,inactive
13,O=C(O)Cc1cccc2ccccc12,"inconclusive: 1.16 µM [inhibitor, single point]"
14,COc1ccccc1C(=O)N1CCCC(c2nc(-c3cc(OC)c(OC)c(OC)c3)no2)C1 (stereo not drawn),active: 7.31 µM
15,CC1=NN(c2ccccc2)C(=O)C1N=Nc1ccccc1 (stereo not drawn),"inconclusive: 9.2 µM [activator, partial curve]"
16,NC(=O)c1ccc(NC(=O)C2COc3ccccc3O2)cc1 (stereo not drawn),"inconclusive: 14.6 µM [activator, partial curve]"
17,O=C1CSC(c2ccccc2Br)N1c1ccc(Cl)cn1 (stereo not drawn),"inconclusive: 16.4 µM [inhibitor, partial curve, poor fit]"
18,O=C(COc1cccc2cccnc12)N/N=C/c1ccccc1O,active: 8.2 µM
19,CCOC(=O)N1CCC(n2c(SCC(=O)OCc3ccccc3)nc3ccsc3c2=O)CC1,active: 23.1 µM
20,CCCCN(C(=O)C1=COCCO1)c1c(N)n(Cc2ccccc2)c(=O)[nH]c1=O,"inconclusive: 29.1 µM [activator, partial curve, poor fit]"
21,CCn1nc(C)c(CN2CCc3c([nH]c4ccccc34)C2c2ccc(F)c(OC)c2)c1C (stereo not drawn),"inconclusive: 20.6 µM [inhibitor, single point]"
22,N#C[C@@H]1N(Cc2ccccc2)C(=O)[C@H]2CC3C=CC21O3 (stereo partly drawn),inactive
23,COc1cccc(/C=C2\N=C3CCCCCN3C2=O)c1,"inconclusive: 20.6 µM [activator, single point]"
24,COc1ccc(-c2cc(CNS(=O)(=O)c3ccc(F)cc3)on2)cc1,"inconclusive: 14.6 µM [inhibitor, partial curve, poor fit]"
25,O=C(CN1CCN(C(=O)c2ccco2)CC1)Nc1cc(Cl)ccc1Cl,"inconclusive: 18.4 µM [inhibitor, partial curve, poor fit]"

# Among those listed so far, these have an aryl thioether with sulfur outside any ring:
row,SMILES,Potency
2,Nn1c(SCC(=O)Nc2ccc(N3CCOCC3)cc2)nnc1-c1cccc(F)c1,"inconclusive: 16.4 µM [activator, partial curve, poor fit]"
15,Cc1noc(NS(=O)(=O)c2ccc(NC(=O)CSc3nc4c(cc3C#N)CCC4)cc2)c1C,inactive
6,Cn1c(SCC#N)nnc1-c1ccc2c(c1)OCO2,inactive
19,CCOC(=O)N1CCC(n2c(SCC(=O)OCc3ccccc3)nc3ccsc3c2=O)CC1,active: 23.1 µM

# Continued.

row,SMILES,Potency
1,COc1cccc(CNC(=O)[C@@H](C)N2C(=O)N3CCc4c([nH]c5ccc(OC)cc45)C3(C)C2=O)c1 (stereo partly drawn),"inconclusive: 20.6 µM [inhibitor, single point]"
2,COCc1ccc(C(=O)NC2CCCc3c2cnn3-c2cc(C)cc(C)c2)s1 (stereo not drawn),"inconclusive: 4.11 µM [inhibitor, partial curve, poor fit]"
3,CC1=N/C(=C/c2ccc([N+](=O)[O-])cc2)C(=O)N1c1ccc(Cl)cc1Cl,inactive
4,O=C(CSc1nnc(COc2ccccc2)o1)N1CCCCC1,inactive
5,COc1ccccc1C(=O)NCC(c1ccco1)N1CCc2ccccc21 (stereo not drawn),inactive
6,c1ccc(Cc2nc(-c3ccccn3)no2)cc1,"inconclusive: 13 µM [activator, partial curve]"
7,COC(=O)C1=C(C)NC(C)=C(C(=O)OC)C1c1cc2ccc(C)cc2[nH]c1=O,inactive
8,COC(=O)c1ccc(NC(=O)c2ccccc2SC)cc1,"inconclusive: 11.2 µM [activator, partial curve, poor fit]"
9,O=C(Nc1ccccc1F)c1oc2ccccc2c1NC(=O)C1CC1,"inconclusive: 2.06 µM [inhibitor, partial curve, poor fit]"
10,O=C(Nc1nccs1)c1cc2c(s1)CCCCC2,"inconclusive: 0.13 µM [activator, full curve]"
11,CCOC(=O)N1CCN(S(=O)(=O)c2ccc3c(c2)SCC(=O)N3)CC1,active: 20.6 µM
12,CCn1c(SCC(=O)c2ccccc2)nc2sc3c(c2c1=O)CCN(C)C3,"inconclusive: 6.51 µM [inhibitor, single point]"
13,O=C(CN1CCN(S(=O)(=O)c2ccc(F)c(F)c2)CC1)Nc1ccccc1C(=O)NC1CC1,inactive
14,CCOC(=O)C1CCN(C(=O)c2ccc3c(c2)NC(=O)/C(=C\c2cccc(C)c2)S3)CC1,active: 14.6 µM
15,COc1ccc(/C(C)=N/Nc2ccc(C(=O)O)cc2)c(OC)c1,"inconclusive: 5.8 µM [activator, partial curve]"
16,CCN1CCN(C2=C(NS(=O)(=O)c3ccccc3)C(=O)c3ccccc3C2=O)CC1,"inconclusive: 32.6 µM [inhibitor, single point]"
17,Fc1ccc(Nc2nc(Oc3ccc4c(c3)OCO4)nc(N3CCOCC3)n2)c(F)c1,inactive
18,COc1ccccc1C(CC(=O)Nc1ccc(Cl)cc1)c1ccc(OC(C)C)cc1 (stereo not drawn),inactive
19,O=C(Nc1ccc2c(c1)oc1ccc(S(=O)(=O)N3CCCC3)cc12)C1CC1,active: 16.4 µM
20,CC(=O)N1CCN(C(=S)Nc2ccc(SC(F)F)cc2)CC1,inactive
21,O=C(NCCN1CCOCC1)C1CC(=O)N(c2ccc(F)cc2)C1 (stereo not drawn),inactive
22,CC1CCCCC1NS(=O)(=O)CCNC(=O)c1ccccc1 (stereo not drawn),"inconclusive: 5.17 µM [inhibitor, single point]"
23,CCSc1nnc(NC(=O)COc2ccccc2)s1,"inconclusive: 29.1 µM [activator, partial curve, poor fit]"
